# Reference: paper PMC5785358, “The STENOFOLIA gene from Medicago alters leaf width, flowering time and chlorophyll content in transgenic wheat”
# Results are given in words; binding and its absence hold for the method and conditions named. In cells and extracts the contact can be indirect. Binding calls can cover weak binding; strength is not graded here. Where a sequence is shown, tags or fusion partners need not be part of it.
# Tests used:
# [1] = target: T1, STFb-YC (STF a.a. 160-358 fused to a YFP fragment) (Medicago truncatula) (UniProt G0ZGT3); test: split reporter; BiFC: STFa or STFb in pEG202-YC with wheat proteins in pEG201-YN, transient expression in leaves of 5-week-old N. benthamiana; leaf discs imaged 3 days after infiltration
# T1 sequence: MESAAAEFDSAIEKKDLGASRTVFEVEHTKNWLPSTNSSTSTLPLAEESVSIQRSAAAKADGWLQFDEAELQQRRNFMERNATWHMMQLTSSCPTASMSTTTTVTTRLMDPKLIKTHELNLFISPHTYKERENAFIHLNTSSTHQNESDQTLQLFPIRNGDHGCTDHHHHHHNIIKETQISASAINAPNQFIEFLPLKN
# [2] = target: T2, STFa-YC (STF a.a. 1-242 fused to a YFP fragment) (Medicago truncatula) (UniProt G0ZGT3); test: as above
# T2 sequence: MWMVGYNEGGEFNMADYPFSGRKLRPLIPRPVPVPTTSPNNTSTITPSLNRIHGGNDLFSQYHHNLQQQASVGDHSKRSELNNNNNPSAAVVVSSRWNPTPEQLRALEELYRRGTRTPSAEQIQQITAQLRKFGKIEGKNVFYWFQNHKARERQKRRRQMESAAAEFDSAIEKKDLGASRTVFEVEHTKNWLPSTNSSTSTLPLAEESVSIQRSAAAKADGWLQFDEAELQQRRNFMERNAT
Substance,binding [1],binding [2]
Ta6SFT1-YN (sucrose:fructan-6-fructosyltransferase fused to a YFP fragment) (wheat (Triticum aestivum)),binds,
TaCCDP1-YN (carbon catabolite-depressing protein kinase fused to a YFP fragment) (wheat (Triticum aestivum)),binds,
TaSRP1-YN (stress responsive protein fused to a YFP fragment) (wheat (Triticum aestivum)),,binds
TaSTK1-YN (serine/threonine kinase fused to a YFP fragment) (wheat (Triticum aestivum)),,binds
